Read-outs that look alike come from different tables or passages of the source. Marks after values point to notes of the source that are not given here.
Legend:
[1] = human, in vivo
[2] = test system: relapsed/refractory hematologic malignancies (AML, NHL, MM, MDS, CTCL)
[3] = Plasma pharmacokinetics; conditions: therapeutic doses (60–120 mg QD)
[4] = Part 1 total population (n = 87)
[5] = Part 2 total population (n = 24)
[6] = Patient 1, 120 mg QD, after 4 months
[7] = Total study population (N = 111)
[8] = patient with NHL (DLBCL), 80 mg QD

In the case of CCNC(=O)C[C@@H]1N=C(c2ccc(Cl)cc2)c2cc(OC)ccc2-n2c(C)nnc21 [molibresib], the “AE: diarrhea” value [1] is reported as 50%, the “AE: nausea” value [1] is reported as 46% and the “AE: thrombocytopenia” value [1] is reported as 40%. For the same compound, the “Grade 3+ AE: anemia” value [1] was 15%, the “Grade 3+ AE: febrile neutropenia” value [1] was 15% and the “Grade 3+ AE: thrombocytopenia” value [1] was 37%. The “diarrhea leading to dose interruption” value [1] was 10%, the “dysgeusia leading to permanent discontinuation” value [1] was 4% and the “patients permanently discontinuing study treatment” value [1] was 30%. For the same compound, the “patients requiring dose interruptions” value [1] was 61%, the “patients requiring dose reductions” value [1] was 25% and the “patients with SAE considered related to treatment” value [1] was 38%. For the same compound, the “patients with maximum Grade 1 or 2 AE” value [1] was 10%, the “sepsis leading to permanent discontinuation” value [1] was 5% and the “thrombocytopenia leading to dose interruption” value [1] was 10%. The “thrombocytopenia leading to dose reduction” value [1] was 15%, the “treatment-related SAE: cardiac failure” value [1] was 2% and the “treatment-related SAE: decreased appetite” value [1] was 2%. The “treatment-related SAE: diarrhea” value [1] was 2%, the “treatment-related SAE: hematuria” value [1] was 2% and the “treatment-related SAE: increased alanine aminotransferase” value [1] was 2%. For the same compound, the “treatment-related SAE: neutropenia” value [1] was 3%, the “treatment-related SAE: pyrexia” value [1] was 2% and the “treatment-related SAE: thrombocytopenia” value [1] was 20%. The “patients achieving complete response” value ([2]; Part 1) was 3 patients, the “patients achieving partial response” value ([2]; Part 1) was 6 patients and the “patients achieving complete response” value ([2]; Part 1 AML) was 2 patients. For the same compound, the “patients achieving partial response” value ([2]; Part 1 AML) was 4 patients, the “patients achieving complete response” value ([2]; Part 1 NHL) was 1 patients and the “patients achieving partial response” value ([2]; Part 1 NHL) was 2 patients. The “Best response: CR” value [2, 4] was 1 (1) n (%), the “Best response: CRi/CRp” value [2, 4] was 2 (2) n (%) and the “Best response: No response” value [2, 4] was 23 (26) n (%). For the same compound, the “Best response: Not evaluable” value [2, 4] was 23 (26) n (%), the “Best response: PR” value [2, 4] was 6 (7) n (%) and the “Best response: Progressive disease” value [2, 4] was 23 (26) n (%). The “Best response: SD” value [2, 4] was 9 (10) n (%), the “Best response: mCR” value [2, 4] was 0 n (%) and the ORR [2, 4] was 10 (4.8–18.7) % (95% CI). For the same compound, the “patients achieving complete response” value ([2]; Part 2 (MDS)) was 3 patients, the “patients achieving partial response” value ([2]; Part 2 (MDS)) was 1 patients and the “Best response: CR” value ([2]; Part 2 CTCL cohort (n = 8)) was 0 n (%). The “Best response: CRi/CRp” value ([2]; Part 2 CTCL cohort (n = 8)) was 0 n (%), the “Best response: No response” value ([2]; Part 2 CTCL cohort (n = 8)) was 0 n (%) and the “Best response: Not evaluable” value ([2]; Part 2 CTCL cohort (n = 8)) was 3 (38) n (%). For the same compound, the “Best response: PR” value ([2]; Part 2 CTCL cohort (n = 8)) was 0 n (%), the “Best response: SD” value ([2]; Part 2 CTCL cohort (n = 8)) was 5 (63) n (%) and the “Best response: mCR” value ([2]; Part 2 CTCL cohort (n = 8)) was 0 n (%). The ORR ([2]; Part 2 CTCL cohort (n = 8)) was 0 % (95% CI), the “Best response: CR” value ([2]; Part 2 MDS cohort (n = 16)) was 1 (6) n (%) and the “Best response: CRi/CRp” value ([2]; Part 2 MDS cohort (n = 16)) was 1 (6)^c n (%). The “Best response: No response” value ([2]; Part 2 MDS cohort (n = 16)) was 3 (19) n (%), the “Best response: Not evaluable” value ([2]; Part 2 MDS cohort (n = 16)) was 8 (50) n (%) and the “Best response: PR” value ([2]; Part 2 MDS cohort (n = 16)) was 1 (6) n (%). The “Best response: SD” value ([2]; Part 2 MDS cohort (n = 16)) was 1 (6) n (%), the “Best response: mCR” value ([2]; Part 2 MDS cohort (n = 16)) was 1 (6) n (%) and the “Best response: CR” value [2, 5] was 1 (4) n (%). The “Best response: CRi/CRp” value [2, 5] was 1 (4) n (%), the “Best response: No response” value [2, 5] was 3 (13) n (%) and the “Best response: Not evaluable” value [2, 5] was 11 (46) n (%). The “Best response: PR” value [2, 5] was 1 (4) n (%), the “Best response: SD” value [2, 5] was 6 (25) n (%) and the “Best response: mCR” value [2, 5] was 1 (4) n (%). The “absolute neutrophil count (recovery)” value [2, 6] was 2.94e+09 L⁻¹, the “hemoglobin level (recovery)” value [2, 6] was 10.2 g/dL and the bone marrow blasts ([2]; Patient 1, AML after MDS, 120 mg QD, after 4 months of treatment) was 0%. For the same compound, the “time to progression with increasing marrow blast counts” value ([2]; Patient 6, 60 mg QD) was 134 days, the “time to documented PR” value ([2]; Patient 6, AML with myelodysplasia-related changes, 60 mg QD) was 99 days and the “Best response: CR” value [2, 7] was 2 (2) n (%). The “Best response: CRi/CRp” value [2, 7] was 3 (3) n (%), the “Best response: No response” value [2, 7] was 26 (23) n (%) and the “Best response: Not evaluable” value [2, 7] was 34 (31) n (%). For the same compound, the “Best response: PR” value [2, 7] was 7 (6) n (%), the “Best response: Progressive disease” value [2, 7] was 23 (21) n (%) and the “Best response: SD” value [2, 7] was 15 (14) n (%). For the same compound, the “Best response: mCR” value [2, 7] was 1 (<1) n (%), the ORR [2, 7] was 13 (6.9–20.6) % (95% CI) and the “total duration complete remission was maintained” value [2, 8] was 53 weeks. The “treatment time at which patient was in complete remission” value [2, 8] was 16 weeks, the “patients achieving partial response” value ([2]; whole study) was 7 patients and the “change in exposure (AUC0–24) with repeated administration” value [3] was “appeared to decrease”.
